Results reported in publication PMC12120709.
No constants are given. Whether binding was seen depends on the method and setting. Binding seen in cells or lysates may run through a third protein. For some of these results: A result given as binding can be weak or reduced; the word gives no strength.

Experiments:
[1] = molecular target: integrin αv (mouse (endogenous in C2C12)); test: proximity ligation; Duolink PLA in C2C12 myoblasts seeded on rigid PAAm hydrogels functionalized with fibronectin, untreated or stimulated with soluble boron (0.59 and 1.47 mM); a dot where two proteins are closer than 40 nm
[2] = molecular target: integrin α5 (mouse (endogenous in C2C12)); test: as above
[3] = molecular target: integrin αv (mouse (endogenous in C2C12)); test: condition: only cells on hydrogels coated with laminin-111 in place of fibronectin; proximity ligation; Duolink PLA in C2C12 myoblasts seeded on PAAm hydrogels of different stiffnesses functionalized with laminin-111, untreated or stimulated with soluble boron (0.59 and 1.47 mM)
[4] = molecular target: integrin α5 (mouse (endogenous in C2C12)); test: as above

binding [1]: binds
binding [2]: binds
binding [3]: no binding
binding [4]: no binding
B1: NaBC1 boron transporter (protein, UniProt A2AJN7 1-862)
chain: MSQNEHCQDSGEYFSAGTQGYFKNNMEDNLEVREDSLGDEVFDTVNSSIVSGESIRFFVNVNLEVQPSKSDLEAATGGCVLLHTSRKYLKLKNFEEEVRAHRDLDGFLAQASIILNETATSLDDVLRTMLNRFALDPNHAEPDCDLDLLMAKLFTDAGAPMESKVHLLSDTIQGVTATVRGVQYEQSWLCIICTMKTLQKRHVCISRLVRPQNWGENSCEVRFVILVLAPPKMKSTKTAMEVARTFATMFSDITFRQKLLKTRTEEEFKEALVHQRQLLTMMMPRAAGHSMSSLHTHRHPQPPKCKDFFPFGKGIWMDIMRRFPVYPMDFTDGIIGKSKSVGKYVTTTLFLYFACLLPTIAFGSLNDENTNGAIDVQKTIAGQSIGGLLYALFSGQPLVILLTTAPLAIYTQVIRVICDDYNLDFNAFYAWTGLWNSFFLALYAFLNLSLLMNLFKRSTEEIIALFISITFVLDAVKGMVKIFGKYYYGHHYHTKRTSSLVSLLGIGRSPNSSLHTALNASLLASPVEMATTSSPGSTHSGQATAVLSLLIMLGTLWLGYTLYQFKKSPYLHPCVRETLSDCALPIAVLSFSLIGSYGFQEIEMSKFRYNPSESLFEVAQIHSLSFKAIGSAMGLGFLLSLLFFIEQNLVAALVNAPENRLVKGTAYHWDLLLLAIINTGLSLFGLPWIHAAYPHSPLHVRALALVEERVENGHIYETIVDVKETRLTALGASVLVGLSLLLLPFPLQWIPKPVLYGLFLYIALTSLDGNQLFSRVALLLKEQTSYPPTHYIRRVPQRKIHYFTGLQILQLLLLCAFGMSSLPYMKMVFPLIMIAMIPIRYNLLPRIIEAKYLDVMDAEHRP
